PubChem BioAssay AID1671195 | Yale University, 2021

Screen: 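Genes whose knockdown alters LDL uptake in liver cancer cells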 (primary screen)
System: human Huh7 hepatoma cells
Knock-down reagent: siRNA pool against human genes, 18 nM
Time to read-out: about 2 to 2.5 days of knockdown, then 8 h LDL uptake
Challenge: DiI-labelled LDL at 30 µg/ml for 8 h, in lipoprotein-deficient serum medium
Read-out: 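Fluorescent LDL signal imaged in cells, scaled to the plate median, robust z-score for each replicate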
Scale: robust z-score: higher = more LDL uptake after knockdown
Hit rule: 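a gene counts as active if at least two replicate z-scores exceed ±2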
The whole screen tested about 22,000 reagents; this is a part drawn at random. In the full data, about 1,510 (6.9%) are marked active. 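Active includes knockdowns raising or lowering LDL uptake; positive z-scores mean more uptake, negative mean less.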 Entries without a mark were called inactive. Reagents against one gene are numbered here.

robust z-score, replicate 1	robust z-score, replicate 2	robust z-score, replicate 3	gene knocked down	reagent no.
0.943	1.98	1.09	SLC16A2	1
-1.1	-0.983	-0.98	PRSS48	1
0.683	0.196	0.0775	LINC-PINT	1
-2.59	-0.352	-0.832	VPS36	1
0.456	0.868	0.165	MZB1	1
-1.03	-0.856	-0.926	SMIM21	1
-1.53	-1.68	-0.974	HNRNPA1P60	1
1.71	2.27	1.02	PDHA1	1
1.62	1.24	1.62	U2AF2	1
-0.51	0.623	-0.334	OTC	1
-0.205	0.0818	0.198	HECW2	1
-0.375	-0.96	-0.485	LOC442070 (retired record)	1
-2.08 (active)	-1.98	-1.99	GSDMA	1
0.0828	0.122	0.0716	LOC440947 (retired record)	1
1	0.0983	2.68	IL17D	1
-0.0167	0.549	-0.374	OGN	1
-0.505	-0.0274	-1.55	LCE2B	1
0.545	0.631	0.00715	ZNF600	1
1.33	0.935	1.28	PTGFRN	1
0.173	0.161	0.133	LOC391764 (retired record)	1

Part of the list above, set out differently.
| robust z-score, replicate 1 | robust z-score, replicate 2 | robust z-score, replicate 3 | gene knocked down | reagent no. |
| --- | --- | --- | --- | --- |
| -0.51 | 0.623 | -0.334 | OTC | 1 |
| -0.205 | 0.0818 | 0.198 | HECW2 | 1 |
| -0.375 | -0.96 | -0.485 | LOC442070 (retired record) | 1 |
| -2.08 (active) | -1.98 | -1.99 | GSDMA | 1 |
| 0.0828 | 0.122 | 0.0716 | LOC440947 (retired record) | 1 |
| 1 | 0.0983 | 2.68 | IL17D | 1 |

More reagents follow.
robust z-score, replicate 1	robust z-score, replicate 2	robust z-score, replicate 3	gene knocked down	reagent no.
2.32 (active)	3.2	3.9	HFM1	1
0.298	0.606	0.766	HFM1	2
-0.601	-0.688	-0.462	HYAL4	1
0.453	-0.464	-0.323	LOC441312 (retired record)	1
-0.982	-0.618	-0.327	SPATA9	1
1.82	-0.175	0.972	ADGRG2	1
0.246	-0.121	-0.164	CPT1B	1
-2.47 (active)	-2.58	-2.37	LINC00472	1
1.07	0.686	0.393	ASRGL1	1
-0.228	-0.729	-0.088	LOC400988 (retired record)	1
0.621	1.95	1.5	CLVS2	1
1.87 (active)	2.4	2.56	VSIG10L2	1
-0.608	-0.303	-0.128	RASGRF2	1
0.265	-0.824	1.07	RASL10B	1
-0.257	-0.0575	0.557	CFAP69	1
-0.556	-0.641	-0.821	FCGR1BP	1
-0.127	-0.591	-0.0764	PPP1R1A	1
-1.01	-0.714	-0.932	RASSF3	1
-1.22	0.0762	1.42	STXBP2	1
-0.542	-0.53	-0.943	AQP4-AS1	1
-2.07	-1.74	-1.76	ARSJ	1
-1.14	-0.378	-0.867	NKX2-1	1
-0.377	1.45	-0.456	CCDC88A	1
1.04	1.06	1.06	LOC388927 (retired record)	1
-0.633	0.441	-0.0633	GIPR	1
-1.11	-0.863	-0.732	JUP	1
